Results on 4 substances are retold here after publication PMC5093555.

In test [1] the target is C1 domain mutated (R77A) PKCα protein fused to eCFP or eYFP (human) (UniProt P17252). Kind of test: FRET or BRET; intermolecular lux-FRET (apparent FRET efficiency at equal donor and acceptor) between co-expressed eCFP and eYFP fusions in living HEK293 cells; Ca^2+ raised by ATP or by ionomycin with extracellular Ca^2+; video or confocal imaging; signal at the plasma membrane; room temperature (20-22 °C), Tyrode. For orientation: In BRET a luciferase serves as donor, and the signal depends on an acceptor being close.

In test [2] the target is C2 domain of PKCα fused to eCFP or eYFP (human) (UniProt P17252). The description is as above.
Test [3] has as its target protein kinase C βII (PKCβ-II) fused to eCFP or eYFP (human) (UniProt P05771). The test is described as above.
Test [4] addresses protein kinase Cα (PKCα), wild type, fused to eCFP or eYFP (human) (UniProt P17252). Kind of test: condition: only in the cytosol (not bound to the plasma membrane); FRET or BRET; confocal lux-FRET between co-expressed eCFP and eYFP fusions in living HEK293 cells, ionomycin with raised Ca^2+; region of the cytosol.
For test [5] the target is unchanged. Kind of test: condition: only membrane accumulation by PMA (1 μM, 20 minutes), without Ca^2+ increase; FRET or BRET; fluorescence lifetime imaging (TCSPC) of the eCFP donor with or without the eYFP acceptor in living HEK cells; membrane accumulation by PMA (1 μM, 20 minutes) without Ca^2+ increase.

These are yes or no findings as the source states them, for the method shown. Binding seen in cells or lysates may run through a third protein. Some binding calls cover weakened binding; strength is not graded here.

“C1 domain mutated (R77A) PKCα protein fused to eCFP or eYFP (from UniProt P17252 1-672) (enzyme)”: the binding entry in test [1] is given as “binds”. In the case of “C2 domain of PKCα fused to eCFP or eYFP (from UniProt P17252 154-338) (domain or fragment)”, in test [2], the binding entry is listed as “binds”. As to “protein kinase C βII (PKCβ-II) fused to eCFP or eYFP (from UniProt P05771-2 1-673) (enzyme)”, the binding entry in test [3] is reported as “binds”. For “protein kinase Cα (PKCα), wild type, fused to eCFP or eYFP (from UniProt P17252 1-672) (enzyme)”, the binding result in test [4] and in test [5] was “no binding” in each case.
